Assay results taken from paper PMC5056749.
Results are given in words; binding and its absence hold for the method and conditions named. Binding seen in cells or lysates may run through a third protein. Some results given as binding are weak or reduced against the parent protein; the word gives no strength.

Chains of the proteins cited; added tags and fusions are not shown.
UniProt P17096: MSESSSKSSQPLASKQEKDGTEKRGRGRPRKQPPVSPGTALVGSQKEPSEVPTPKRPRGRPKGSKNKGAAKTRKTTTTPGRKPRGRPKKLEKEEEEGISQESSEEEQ
UniProt P13010: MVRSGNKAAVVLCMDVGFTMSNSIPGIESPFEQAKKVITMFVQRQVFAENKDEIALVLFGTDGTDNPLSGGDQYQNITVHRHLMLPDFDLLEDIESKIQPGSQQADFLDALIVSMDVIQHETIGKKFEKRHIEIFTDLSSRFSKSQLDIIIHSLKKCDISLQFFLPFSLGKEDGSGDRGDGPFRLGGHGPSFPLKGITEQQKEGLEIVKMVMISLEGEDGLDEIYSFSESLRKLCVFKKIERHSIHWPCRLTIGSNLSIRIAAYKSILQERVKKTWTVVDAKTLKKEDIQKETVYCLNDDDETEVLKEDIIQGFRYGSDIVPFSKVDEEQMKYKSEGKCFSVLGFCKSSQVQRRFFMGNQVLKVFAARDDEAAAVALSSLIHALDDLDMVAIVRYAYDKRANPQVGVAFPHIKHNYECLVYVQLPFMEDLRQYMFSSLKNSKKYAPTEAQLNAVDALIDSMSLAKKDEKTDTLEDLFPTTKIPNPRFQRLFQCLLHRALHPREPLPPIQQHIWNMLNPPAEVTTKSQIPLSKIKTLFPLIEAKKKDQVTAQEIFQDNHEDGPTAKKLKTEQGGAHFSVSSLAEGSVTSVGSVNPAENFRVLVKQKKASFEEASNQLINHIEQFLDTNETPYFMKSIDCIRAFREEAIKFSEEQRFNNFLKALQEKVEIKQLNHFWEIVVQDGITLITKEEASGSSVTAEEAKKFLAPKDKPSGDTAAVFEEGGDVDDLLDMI
UniProt P78527: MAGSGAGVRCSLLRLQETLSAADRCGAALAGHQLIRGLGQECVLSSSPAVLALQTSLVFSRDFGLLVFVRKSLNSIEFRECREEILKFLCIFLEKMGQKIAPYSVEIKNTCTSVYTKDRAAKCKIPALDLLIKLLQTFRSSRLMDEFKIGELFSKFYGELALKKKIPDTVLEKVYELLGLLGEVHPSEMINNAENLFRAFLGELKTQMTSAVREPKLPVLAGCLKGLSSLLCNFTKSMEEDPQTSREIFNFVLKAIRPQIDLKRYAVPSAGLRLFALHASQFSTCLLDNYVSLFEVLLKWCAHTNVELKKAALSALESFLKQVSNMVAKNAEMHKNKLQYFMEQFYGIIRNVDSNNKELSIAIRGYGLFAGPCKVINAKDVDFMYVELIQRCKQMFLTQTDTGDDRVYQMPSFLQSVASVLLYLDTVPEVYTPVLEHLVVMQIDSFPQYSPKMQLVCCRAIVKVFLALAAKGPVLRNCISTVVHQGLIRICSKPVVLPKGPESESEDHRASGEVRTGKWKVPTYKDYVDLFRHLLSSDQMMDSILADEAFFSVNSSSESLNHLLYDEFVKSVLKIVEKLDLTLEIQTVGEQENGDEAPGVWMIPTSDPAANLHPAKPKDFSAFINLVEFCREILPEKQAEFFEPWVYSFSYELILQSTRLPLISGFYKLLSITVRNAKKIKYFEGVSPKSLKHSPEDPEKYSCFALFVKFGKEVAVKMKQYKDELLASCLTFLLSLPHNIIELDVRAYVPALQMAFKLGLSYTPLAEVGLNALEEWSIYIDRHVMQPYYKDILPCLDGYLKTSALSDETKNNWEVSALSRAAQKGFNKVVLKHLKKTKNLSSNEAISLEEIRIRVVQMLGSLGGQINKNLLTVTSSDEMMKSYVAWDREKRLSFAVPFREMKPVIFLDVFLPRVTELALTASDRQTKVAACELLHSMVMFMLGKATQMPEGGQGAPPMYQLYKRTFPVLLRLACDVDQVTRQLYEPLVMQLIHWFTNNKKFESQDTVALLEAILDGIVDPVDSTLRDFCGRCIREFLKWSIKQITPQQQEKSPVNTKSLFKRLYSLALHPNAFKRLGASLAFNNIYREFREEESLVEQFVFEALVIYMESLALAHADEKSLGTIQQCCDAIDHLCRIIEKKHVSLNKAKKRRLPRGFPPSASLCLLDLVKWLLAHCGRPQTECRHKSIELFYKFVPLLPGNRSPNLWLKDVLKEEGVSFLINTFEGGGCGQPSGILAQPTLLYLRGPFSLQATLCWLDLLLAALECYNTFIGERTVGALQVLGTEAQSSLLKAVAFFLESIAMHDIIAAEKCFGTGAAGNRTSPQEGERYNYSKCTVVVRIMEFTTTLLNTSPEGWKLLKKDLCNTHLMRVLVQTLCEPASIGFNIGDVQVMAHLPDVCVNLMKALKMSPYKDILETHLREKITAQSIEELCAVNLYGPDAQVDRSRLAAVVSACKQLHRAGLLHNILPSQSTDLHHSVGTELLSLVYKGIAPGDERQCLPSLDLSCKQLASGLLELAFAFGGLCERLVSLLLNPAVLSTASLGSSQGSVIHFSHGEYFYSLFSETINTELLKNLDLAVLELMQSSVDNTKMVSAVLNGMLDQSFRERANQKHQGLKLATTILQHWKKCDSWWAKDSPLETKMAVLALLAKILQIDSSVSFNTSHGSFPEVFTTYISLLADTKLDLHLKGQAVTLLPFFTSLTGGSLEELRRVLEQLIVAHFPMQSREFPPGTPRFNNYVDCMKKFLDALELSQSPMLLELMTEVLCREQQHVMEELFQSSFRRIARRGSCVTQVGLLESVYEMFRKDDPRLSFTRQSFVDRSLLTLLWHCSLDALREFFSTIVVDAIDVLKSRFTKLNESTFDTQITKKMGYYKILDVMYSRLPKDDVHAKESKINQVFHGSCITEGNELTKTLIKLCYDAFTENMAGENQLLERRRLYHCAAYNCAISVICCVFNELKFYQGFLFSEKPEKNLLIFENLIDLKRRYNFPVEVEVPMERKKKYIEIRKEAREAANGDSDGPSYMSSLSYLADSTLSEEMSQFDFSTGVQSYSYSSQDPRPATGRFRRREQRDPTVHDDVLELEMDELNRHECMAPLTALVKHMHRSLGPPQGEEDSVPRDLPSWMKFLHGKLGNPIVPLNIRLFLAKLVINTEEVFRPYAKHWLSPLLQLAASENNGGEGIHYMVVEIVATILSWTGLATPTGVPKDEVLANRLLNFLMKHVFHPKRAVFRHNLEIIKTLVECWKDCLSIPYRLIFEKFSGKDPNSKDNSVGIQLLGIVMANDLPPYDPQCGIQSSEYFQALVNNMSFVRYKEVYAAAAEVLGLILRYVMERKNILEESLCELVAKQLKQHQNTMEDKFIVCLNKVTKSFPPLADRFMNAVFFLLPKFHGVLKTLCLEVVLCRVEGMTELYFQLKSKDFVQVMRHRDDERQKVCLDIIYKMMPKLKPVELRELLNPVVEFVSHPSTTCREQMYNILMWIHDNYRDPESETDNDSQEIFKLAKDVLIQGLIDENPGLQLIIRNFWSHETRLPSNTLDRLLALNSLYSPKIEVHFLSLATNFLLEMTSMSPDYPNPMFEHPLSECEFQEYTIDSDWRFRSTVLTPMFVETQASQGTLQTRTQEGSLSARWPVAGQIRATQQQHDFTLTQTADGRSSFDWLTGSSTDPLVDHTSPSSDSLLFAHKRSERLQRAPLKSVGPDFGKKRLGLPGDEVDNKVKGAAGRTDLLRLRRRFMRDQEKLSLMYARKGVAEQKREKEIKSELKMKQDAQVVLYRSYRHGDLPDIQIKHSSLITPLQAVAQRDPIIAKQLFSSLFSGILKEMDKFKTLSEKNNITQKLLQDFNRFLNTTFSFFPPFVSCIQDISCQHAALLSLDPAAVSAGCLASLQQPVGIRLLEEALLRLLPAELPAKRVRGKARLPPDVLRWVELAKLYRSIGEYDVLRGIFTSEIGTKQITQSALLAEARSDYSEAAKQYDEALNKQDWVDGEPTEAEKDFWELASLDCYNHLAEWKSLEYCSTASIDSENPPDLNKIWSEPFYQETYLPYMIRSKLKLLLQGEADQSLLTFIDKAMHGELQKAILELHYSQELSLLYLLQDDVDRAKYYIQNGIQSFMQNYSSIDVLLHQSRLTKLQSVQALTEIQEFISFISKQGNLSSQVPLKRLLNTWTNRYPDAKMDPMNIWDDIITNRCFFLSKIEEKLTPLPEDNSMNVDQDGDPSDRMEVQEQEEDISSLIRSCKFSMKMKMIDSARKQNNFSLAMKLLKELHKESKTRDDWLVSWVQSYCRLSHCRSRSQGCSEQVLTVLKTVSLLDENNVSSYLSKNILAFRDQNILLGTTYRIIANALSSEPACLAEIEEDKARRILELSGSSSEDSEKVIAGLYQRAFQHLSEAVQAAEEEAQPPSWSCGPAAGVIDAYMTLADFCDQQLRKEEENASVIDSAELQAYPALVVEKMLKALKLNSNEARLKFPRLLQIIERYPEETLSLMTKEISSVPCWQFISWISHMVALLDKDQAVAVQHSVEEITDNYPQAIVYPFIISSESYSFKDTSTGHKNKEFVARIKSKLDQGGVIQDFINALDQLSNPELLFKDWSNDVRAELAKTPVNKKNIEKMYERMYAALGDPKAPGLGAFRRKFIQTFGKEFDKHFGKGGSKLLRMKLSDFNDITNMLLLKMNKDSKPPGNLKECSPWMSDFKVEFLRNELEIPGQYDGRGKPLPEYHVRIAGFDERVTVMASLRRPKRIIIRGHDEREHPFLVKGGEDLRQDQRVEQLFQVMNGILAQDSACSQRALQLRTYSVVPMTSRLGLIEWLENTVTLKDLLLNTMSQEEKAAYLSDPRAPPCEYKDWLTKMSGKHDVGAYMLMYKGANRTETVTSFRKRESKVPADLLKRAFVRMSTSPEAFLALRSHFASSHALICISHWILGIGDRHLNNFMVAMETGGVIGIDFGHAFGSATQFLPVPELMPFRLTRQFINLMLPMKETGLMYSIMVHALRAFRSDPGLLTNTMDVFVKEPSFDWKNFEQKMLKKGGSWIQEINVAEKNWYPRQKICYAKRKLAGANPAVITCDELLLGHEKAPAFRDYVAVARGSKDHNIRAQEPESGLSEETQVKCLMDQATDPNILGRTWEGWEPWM

Columns and labels:
[1] = target: HMGA1 (High Mobility Group A1), endogenous (human (endogenous in MDA-MB-231)) (UniProt P17096); test: co-IP; endogenous proteins; 500 ug MDA-MB-231 lysate, untreated or incubated with 50 ug/ml ethidium bromide (complex still present at lower levels); precipitated with 4 ug rabbit polyclonal anti-HMGA1 (aspecific IgG as control); immunoblot for Ku70 and Ku80
[2] = target: HMGA1a fused to MBP (Maltose Binding Protein) (human) (UniProt P17096); test: pull-down; co-affinity purification (Co-AP): MBP-HMGA1a or MBP alone expressed in HEK 293T cells by transient transfection, lysates incubated with amylose resin, bound proteins eluted with SDS sample buffer; western blot for Ku70, Ku80, Ligase IV and DNA-PKcs

## Ku80 (from UniProt P13010 1-732)
[1]
  binding: binds
[2]
  binding: binds

## DNA-PKcs, the catalytic subunit of DNA-PK (DNA-dependent Protein Kinase) (from UniProt P78527 1-4128) (enzyme)
[2]
  binding: binds
